{"sequences": {"note": "The chains behind the UniProt entries cited, without tags or fusion partners. Where a name states a change or a piece, a line headed by the entry shows the natural chain unless it says otherwise. Residues count along the entry.", "UniProt P01009": "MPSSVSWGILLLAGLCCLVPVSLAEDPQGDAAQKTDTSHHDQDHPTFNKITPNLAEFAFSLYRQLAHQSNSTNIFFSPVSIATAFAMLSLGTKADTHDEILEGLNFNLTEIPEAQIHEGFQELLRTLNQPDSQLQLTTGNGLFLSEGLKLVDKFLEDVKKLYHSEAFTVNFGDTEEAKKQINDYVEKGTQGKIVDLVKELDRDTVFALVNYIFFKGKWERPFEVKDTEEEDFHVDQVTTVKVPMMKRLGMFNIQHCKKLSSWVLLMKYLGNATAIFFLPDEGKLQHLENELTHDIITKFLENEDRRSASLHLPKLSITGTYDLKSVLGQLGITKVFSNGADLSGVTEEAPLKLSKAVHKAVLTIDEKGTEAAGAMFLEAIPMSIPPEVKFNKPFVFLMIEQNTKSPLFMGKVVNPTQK", "UniProt P11021, residues 19-654": "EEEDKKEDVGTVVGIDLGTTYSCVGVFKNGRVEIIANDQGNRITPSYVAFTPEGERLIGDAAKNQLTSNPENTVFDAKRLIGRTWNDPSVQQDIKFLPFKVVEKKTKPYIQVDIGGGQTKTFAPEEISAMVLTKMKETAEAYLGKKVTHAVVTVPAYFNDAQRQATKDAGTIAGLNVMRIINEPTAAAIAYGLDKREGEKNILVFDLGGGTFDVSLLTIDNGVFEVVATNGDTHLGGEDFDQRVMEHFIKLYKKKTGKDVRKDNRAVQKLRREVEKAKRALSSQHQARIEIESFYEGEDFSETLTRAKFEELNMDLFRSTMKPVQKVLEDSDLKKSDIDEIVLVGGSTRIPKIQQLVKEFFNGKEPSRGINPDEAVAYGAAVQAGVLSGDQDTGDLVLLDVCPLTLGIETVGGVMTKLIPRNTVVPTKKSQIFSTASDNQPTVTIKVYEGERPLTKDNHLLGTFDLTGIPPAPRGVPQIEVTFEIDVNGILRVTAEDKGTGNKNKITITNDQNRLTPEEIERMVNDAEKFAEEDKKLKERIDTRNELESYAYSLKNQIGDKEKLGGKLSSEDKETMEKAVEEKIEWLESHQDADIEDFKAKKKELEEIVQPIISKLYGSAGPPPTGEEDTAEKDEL"}, "source": "paper PMC4109312", "target": "null Hong Kong mutant alpha 1 anti-trypsin (NHK-A1AT), C-terminally tagged with 3XFLAG (UniProt P01009)", "assay": "co-IP; anti-FLAG immunoprecipitation (Sigma A2220) of FLAG-tagged NHK-A1AT from pulse-chase metabolically labeled HeLa cells co-expressing ER-ChaC1^CtoS or ER-ChaC1^CtoS;E116Q; SDS-PAGE (reducing or non-reducing) and autoradiography", "note": "These are yes or no findings as the source states them, for the method shown. Binding seen in cells or lysates may run through a third protein. A result given as binding can be weak or reduced; the word gives no strength."}
{"substance": "ER-chaperone BiP (from UniProt P11021 19-654)", "values": [{"measurement": "binding", "result": "binds"}]}
